These are yes or no findings as the source states them, for the method shown. Binding seen in cells or lysates may run through a third protein. A yes stands for co-enrichment or nearness to the bait. Other partners may have been found. For part of these data: No binding means not detected with the bait.
Assays:
[1] = target: Polypyrimidine Tract Binding Protein 1, His-tagged (UniProt P26599); experiment: affinity purification with mass spectrometry; 48 ug His-tagged PTBP in a 200 ul splicing reaction (2.2 mM MgCl2, 0.4 mM ATP, 20 mM creatine phosphate) with WERI retinoblastoma nuclear extract, 30 C 90 min; HisPur Ni-NTA magnetic resin overnight at 4 C; washes with 150 mM NaCl, 30 mM imidazole; eluted with 300 mM imidazole; proteins of the Buffer DG and WERI only controls removed from the lists; the extract includes RNA transcripts, so a protein may be bound directly or through RNA; only the target purified
[2] = target: Polypyrimidine Tract Binding Protein 2, His-tagged (UniProt Q9UKA9); experiment: as above

Sequences of proteins named here, by UniProt entry; tags and fusion partners are left off.
UniProt P26599: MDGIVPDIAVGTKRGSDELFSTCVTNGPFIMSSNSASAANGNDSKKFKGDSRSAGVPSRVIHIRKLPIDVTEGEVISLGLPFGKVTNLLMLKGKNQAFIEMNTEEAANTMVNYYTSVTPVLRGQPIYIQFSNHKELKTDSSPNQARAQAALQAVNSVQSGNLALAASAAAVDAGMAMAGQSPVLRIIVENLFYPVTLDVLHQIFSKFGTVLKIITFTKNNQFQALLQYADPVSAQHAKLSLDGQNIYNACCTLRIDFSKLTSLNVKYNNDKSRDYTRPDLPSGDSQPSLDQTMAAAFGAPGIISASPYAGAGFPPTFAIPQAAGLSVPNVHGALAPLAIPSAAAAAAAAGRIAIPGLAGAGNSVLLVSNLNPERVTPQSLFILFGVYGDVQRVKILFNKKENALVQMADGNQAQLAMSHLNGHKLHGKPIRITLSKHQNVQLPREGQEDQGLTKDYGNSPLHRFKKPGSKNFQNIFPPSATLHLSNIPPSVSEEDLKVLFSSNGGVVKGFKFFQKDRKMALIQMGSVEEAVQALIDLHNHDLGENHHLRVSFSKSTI
UniProt Q9UKA9: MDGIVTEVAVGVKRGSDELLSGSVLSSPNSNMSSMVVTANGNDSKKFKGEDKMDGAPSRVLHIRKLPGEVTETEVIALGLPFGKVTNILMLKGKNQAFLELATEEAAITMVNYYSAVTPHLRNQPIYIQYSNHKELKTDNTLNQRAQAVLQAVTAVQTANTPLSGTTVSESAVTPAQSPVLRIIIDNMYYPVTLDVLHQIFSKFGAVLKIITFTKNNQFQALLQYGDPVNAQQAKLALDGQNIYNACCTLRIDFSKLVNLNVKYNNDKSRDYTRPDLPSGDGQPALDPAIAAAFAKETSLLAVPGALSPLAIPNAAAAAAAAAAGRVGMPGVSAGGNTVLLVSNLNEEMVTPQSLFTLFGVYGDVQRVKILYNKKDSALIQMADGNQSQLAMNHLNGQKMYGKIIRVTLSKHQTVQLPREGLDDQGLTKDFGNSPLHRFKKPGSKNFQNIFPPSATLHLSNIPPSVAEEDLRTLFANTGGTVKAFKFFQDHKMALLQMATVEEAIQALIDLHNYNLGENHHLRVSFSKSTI
UniProt P31947: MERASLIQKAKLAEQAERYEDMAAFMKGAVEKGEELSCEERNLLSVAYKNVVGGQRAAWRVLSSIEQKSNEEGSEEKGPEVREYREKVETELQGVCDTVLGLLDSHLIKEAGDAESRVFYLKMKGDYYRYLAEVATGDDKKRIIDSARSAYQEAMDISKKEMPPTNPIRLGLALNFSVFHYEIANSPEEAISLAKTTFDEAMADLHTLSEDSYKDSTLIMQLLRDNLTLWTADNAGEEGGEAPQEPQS
UniProt Q96AE4: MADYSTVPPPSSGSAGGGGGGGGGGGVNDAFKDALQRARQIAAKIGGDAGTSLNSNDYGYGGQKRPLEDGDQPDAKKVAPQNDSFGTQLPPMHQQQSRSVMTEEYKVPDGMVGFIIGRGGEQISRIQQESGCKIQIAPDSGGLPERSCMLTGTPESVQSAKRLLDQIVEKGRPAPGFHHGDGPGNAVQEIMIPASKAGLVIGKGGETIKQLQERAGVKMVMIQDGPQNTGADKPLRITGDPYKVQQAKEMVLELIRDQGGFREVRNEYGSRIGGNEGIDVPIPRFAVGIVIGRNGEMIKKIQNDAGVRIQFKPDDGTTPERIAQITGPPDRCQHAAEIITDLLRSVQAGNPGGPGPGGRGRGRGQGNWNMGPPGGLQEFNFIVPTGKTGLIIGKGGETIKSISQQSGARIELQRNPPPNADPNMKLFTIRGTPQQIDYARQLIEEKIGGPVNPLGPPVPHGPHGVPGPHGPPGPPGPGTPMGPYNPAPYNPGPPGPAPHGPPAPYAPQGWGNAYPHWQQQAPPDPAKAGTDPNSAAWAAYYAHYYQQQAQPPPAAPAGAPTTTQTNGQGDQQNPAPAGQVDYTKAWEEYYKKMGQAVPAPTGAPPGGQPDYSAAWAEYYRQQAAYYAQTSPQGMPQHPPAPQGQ
UniProt Q96A72: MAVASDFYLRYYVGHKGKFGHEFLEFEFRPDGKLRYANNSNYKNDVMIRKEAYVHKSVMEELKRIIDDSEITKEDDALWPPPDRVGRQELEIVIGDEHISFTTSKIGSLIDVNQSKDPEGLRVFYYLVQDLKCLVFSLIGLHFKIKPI
UniProt P48634: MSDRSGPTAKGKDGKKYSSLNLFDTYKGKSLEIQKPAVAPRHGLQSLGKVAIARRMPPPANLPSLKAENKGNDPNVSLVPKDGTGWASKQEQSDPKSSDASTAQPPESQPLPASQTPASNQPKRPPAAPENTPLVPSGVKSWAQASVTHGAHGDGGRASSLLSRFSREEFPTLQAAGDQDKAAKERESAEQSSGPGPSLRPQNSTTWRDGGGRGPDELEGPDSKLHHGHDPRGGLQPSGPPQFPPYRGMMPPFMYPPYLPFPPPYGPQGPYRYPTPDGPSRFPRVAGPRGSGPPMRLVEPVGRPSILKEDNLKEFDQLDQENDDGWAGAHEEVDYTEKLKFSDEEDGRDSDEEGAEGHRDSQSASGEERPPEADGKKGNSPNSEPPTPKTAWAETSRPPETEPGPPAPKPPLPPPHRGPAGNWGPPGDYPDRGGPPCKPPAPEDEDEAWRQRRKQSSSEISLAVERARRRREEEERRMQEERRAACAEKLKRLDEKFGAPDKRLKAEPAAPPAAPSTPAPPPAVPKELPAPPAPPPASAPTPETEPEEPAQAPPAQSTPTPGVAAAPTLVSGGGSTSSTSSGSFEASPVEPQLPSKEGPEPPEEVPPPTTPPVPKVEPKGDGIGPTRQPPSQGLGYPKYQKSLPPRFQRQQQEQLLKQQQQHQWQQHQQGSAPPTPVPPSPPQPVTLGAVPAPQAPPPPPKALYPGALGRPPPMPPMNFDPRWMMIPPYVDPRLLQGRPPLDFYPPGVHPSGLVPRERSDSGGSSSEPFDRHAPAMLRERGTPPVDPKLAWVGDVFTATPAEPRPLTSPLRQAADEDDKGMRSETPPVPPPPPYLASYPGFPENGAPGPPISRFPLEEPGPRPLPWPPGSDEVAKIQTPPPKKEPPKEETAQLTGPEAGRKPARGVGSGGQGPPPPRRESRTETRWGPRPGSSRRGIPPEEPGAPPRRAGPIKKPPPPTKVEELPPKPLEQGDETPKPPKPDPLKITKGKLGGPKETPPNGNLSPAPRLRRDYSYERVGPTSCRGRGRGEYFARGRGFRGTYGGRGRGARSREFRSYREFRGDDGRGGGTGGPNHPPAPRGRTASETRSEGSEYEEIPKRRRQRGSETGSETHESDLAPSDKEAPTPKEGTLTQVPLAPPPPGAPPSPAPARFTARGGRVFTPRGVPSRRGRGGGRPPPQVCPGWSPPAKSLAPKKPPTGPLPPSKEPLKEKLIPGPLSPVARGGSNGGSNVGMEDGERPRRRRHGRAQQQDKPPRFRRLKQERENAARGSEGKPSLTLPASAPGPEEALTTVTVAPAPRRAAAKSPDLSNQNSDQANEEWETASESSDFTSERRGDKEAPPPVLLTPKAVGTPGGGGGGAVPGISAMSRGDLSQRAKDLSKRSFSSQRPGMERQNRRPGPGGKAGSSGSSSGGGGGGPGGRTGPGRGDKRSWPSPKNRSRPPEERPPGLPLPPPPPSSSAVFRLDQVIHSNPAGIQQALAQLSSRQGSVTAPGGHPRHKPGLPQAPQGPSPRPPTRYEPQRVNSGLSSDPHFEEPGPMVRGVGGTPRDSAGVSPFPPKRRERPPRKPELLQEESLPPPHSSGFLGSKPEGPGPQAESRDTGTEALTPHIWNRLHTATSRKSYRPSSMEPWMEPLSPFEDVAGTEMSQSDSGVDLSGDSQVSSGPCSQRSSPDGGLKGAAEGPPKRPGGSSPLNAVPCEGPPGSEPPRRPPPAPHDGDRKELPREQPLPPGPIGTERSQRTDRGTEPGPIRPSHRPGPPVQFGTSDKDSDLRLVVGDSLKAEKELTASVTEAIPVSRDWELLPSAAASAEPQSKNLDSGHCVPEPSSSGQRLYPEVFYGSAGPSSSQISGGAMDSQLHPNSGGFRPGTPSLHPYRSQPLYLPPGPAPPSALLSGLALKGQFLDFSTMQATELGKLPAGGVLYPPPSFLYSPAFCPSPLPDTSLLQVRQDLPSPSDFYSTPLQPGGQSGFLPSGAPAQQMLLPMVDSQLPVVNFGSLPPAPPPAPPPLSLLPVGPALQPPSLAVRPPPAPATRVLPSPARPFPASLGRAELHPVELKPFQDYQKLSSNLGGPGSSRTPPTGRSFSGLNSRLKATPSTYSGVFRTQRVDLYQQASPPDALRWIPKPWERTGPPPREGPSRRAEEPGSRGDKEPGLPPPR
UniProt P18754: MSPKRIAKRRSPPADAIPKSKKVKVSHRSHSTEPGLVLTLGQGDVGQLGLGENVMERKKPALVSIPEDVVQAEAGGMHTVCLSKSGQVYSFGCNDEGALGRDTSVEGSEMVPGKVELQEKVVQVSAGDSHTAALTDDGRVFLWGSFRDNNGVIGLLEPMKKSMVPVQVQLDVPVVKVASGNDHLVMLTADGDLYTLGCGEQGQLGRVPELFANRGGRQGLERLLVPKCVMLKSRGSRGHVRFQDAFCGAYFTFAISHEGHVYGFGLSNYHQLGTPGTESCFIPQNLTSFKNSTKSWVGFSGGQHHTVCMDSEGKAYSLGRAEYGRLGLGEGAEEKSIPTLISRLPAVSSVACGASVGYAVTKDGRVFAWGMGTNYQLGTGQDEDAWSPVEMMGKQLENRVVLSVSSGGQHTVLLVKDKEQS
UniProt P51149: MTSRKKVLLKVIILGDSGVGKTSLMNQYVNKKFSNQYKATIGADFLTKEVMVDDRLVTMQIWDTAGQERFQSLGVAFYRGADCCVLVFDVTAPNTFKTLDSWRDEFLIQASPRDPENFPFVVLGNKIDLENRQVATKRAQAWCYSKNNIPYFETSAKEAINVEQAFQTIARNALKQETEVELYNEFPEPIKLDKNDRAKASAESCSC
UniProt P29692: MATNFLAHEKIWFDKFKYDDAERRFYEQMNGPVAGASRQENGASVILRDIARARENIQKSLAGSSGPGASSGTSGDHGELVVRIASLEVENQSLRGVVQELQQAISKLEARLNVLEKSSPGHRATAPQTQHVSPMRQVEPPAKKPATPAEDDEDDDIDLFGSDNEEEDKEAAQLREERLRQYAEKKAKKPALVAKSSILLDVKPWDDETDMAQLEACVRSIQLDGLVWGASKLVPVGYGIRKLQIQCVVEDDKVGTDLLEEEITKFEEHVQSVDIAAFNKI
UniProt O43148: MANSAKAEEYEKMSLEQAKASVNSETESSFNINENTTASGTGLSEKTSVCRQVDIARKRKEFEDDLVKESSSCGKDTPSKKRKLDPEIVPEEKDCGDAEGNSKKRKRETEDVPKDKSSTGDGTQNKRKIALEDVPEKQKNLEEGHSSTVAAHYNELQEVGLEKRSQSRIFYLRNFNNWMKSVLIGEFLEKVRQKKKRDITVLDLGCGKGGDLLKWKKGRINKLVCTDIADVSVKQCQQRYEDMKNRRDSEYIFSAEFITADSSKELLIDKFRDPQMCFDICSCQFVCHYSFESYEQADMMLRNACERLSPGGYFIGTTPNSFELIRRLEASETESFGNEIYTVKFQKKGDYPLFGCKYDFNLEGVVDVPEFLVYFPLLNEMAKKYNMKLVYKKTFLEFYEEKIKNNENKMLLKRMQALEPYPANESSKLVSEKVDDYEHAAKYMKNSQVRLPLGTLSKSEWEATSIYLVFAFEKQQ
UniProt P62308: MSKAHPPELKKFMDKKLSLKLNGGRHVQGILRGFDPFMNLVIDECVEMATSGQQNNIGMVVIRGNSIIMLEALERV
UniProt P60842: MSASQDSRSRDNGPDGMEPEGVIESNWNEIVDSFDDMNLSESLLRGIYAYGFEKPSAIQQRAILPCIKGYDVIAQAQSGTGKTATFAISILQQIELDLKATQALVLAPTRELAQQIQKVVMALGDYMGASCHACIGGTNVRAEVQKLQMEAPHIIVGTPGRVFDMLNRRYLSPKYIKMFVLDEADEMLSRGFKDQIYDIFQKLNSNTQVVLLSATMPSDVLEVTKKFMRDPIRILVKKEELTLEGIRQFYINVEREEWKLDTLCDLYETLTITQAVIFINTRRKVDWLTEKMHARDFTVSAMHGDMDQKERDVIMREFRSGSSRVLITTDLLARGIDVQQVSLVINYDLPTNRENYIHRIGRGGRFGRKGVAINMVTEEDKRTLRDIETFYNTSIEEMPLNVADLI
UniProt Q14240: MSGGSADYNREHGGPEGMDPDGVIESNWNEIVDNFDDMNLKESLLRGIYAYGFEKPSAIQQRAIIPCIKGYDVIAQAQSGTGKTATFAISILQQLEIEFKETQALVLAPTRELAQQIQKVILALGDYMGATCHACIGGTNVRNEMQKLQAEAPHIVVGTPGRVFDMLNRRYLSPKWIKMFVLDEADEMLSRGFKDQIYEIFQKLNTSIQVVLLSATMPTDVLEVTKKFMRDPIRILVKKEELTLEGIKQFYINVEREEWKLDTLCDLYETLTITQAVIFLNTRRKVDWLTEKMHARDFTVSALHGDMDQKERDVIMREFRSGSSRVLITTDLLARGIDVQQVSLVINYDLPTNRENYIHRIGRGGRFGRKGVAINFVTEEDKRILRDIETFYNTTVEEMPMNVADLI

Row | Substance | binding [1] | binding [2]
1 | 14-3-3 adaptor protein SFN (from UniProt P31947 1-248) | binds | –
2 | ANP32B, an acidic leucine rich phosphoprotein (from UniProt Q92688 1-251) | – | binds
3 | CHD5 (from UniProt Q8TDI0 1-1954) | binds | –
4 | DDX5 (a DEAD box helicase) (from UniProt P17844 1-614) | – | binds
5 | E3 ubiquitin ligase LTN1 (from UniProt O94822 1-1766) | binds | –
6 | EIF2S3 (from UniProt P41091 1-472) | binds | –
7 | FUBP1 (from UniProt Q96AE4 1-644) | binds | –
8 | MAGOH (from UniProt P61326 1-146) | – | binds
9 | MAGOHB (from UniProt Q96A72 1-148) | – | binds
10 | PABPC1 (from UniProt P11940 1-636) | binds | –
11 | PRRC2A (from UniProt P48634 1-2157) | binds | –
12 | PSMA6 (from UniProt P60900 1-246) | binds | –
13 | PSMD12 (from UniProt O00232 1-456) | binds | –
14 | Ran-related protein RCC1 (from UniProt P18754 1-421) | binds | –
15 | Ras-related protein RAB2A (from UniProt P61019 1-212) | binds | –
16 | Ras-related protein RAB7A (from UniProt P51149 1-207) | binds | –
17 | Ras-related protein RAB11A (from UniProt P62491 1-216) | binds | –
18 | SETSIP (from UniProt P0DME0 1-292) | binds | binds
19 | SKP1 (from UniProt P63208 1-163) | – | binds
20 | SMARCA2 (from UniProt P51531 1-1590) | – | binds
21 | SMARCB1 (from UniProt Q12824 1-385) | – | binds
22 | SMARCC2 (from UniProt Q8TAQ2 1-1214) | – | binds
23 | SMARCE1 (from UniProt Q969G3 1-411) | – | binds

Row | Substance | binding [1] | binding [2]
24 | TAF8 (from UniProt Q7Z7C8 1-310) | binds | –
25 | YWHAB (from UniProt P31946 1-246) | binds | binds
26 | YWHAZ (from UniProt P63104 1-245) | binds | binds
27 | ZSWIM8 (from UniProt A7E2V4 1-1837) | – | binds
28 | cleavage and polyadenylation factor 6 (from UniProt Q16630 1-551) | binds | binds
29 | deubiquitinating enzyme USP7 (from UniProt Q93009 1-1102) | binds | binds
30 | elongation factor EEF1A1 (from UniProt P68104 1-462) | – | binds
31 | elongation factor EEF1D (from UniProt P29692 1-281) | binds | –
32 | heterogenous ribonuclear protein hnRNPH1 (from UniProt P31943 1-449) | – | binds
33 | histone lysine demethylase RIOX2 (from UniProt Q8IUF8 1-465) | – | binds
34 | mRNA cap methyltransferase RNMT (from UniProt O43148 1-476) | binds | binds
35 | ribosomal protein RPLP1 (from UniProt P05386 1-114) | binds | no binding
36 | ribosomal protein RPLP2 (from UniProt P05387 1-115) | binds | no binding
37 | serine arginine rich splicing factor SRSF1 (from UniProt Q07955 1-248) | – | binds
38 | small nuclear ribonuclear protein SNRNPG (from UniProt P62308 1-76) | binds | binds
39 | splicing factor DDX39B (from UniProt Q13838 1-428) | binds | –
40 | splicing factor SF3B2 (from UniProt Q13435 1-895) | binds | –
41 | splicing factor hnRNPK (from UniProt P61978 1-463) | binds | –
42 | splicing factor snRNPA (from UniProt P09012 1-282) | binds | –
43 | transcriptional regulatory factor TRIM28 (from UniProt Q13263 1-835) | binds | –
44 | translation initiation factor EIF4A1 (from UniProt P60842 1-406) | binds | –
45 | translation initiation factor EIF4A2 (from UniProt Q14240 1-407) | binds | –
